Earlier results in PMC8222394 (Nature Communications, 2021).

Test system: c-Kit
Details: read-out: IC50 c-Kit; Porcine aorta endothelial cells; ref selleckchem.com; cited from earlier work

In the case of `CNC(=O)c1ccccc1Sc1ccc2c(/C=C/c3ccccn3)n[nH]c2c1` [Axitinib], the IC50 is given as 1.7 nM.
